# Source: publication PMC3158102
# Sequences of proteins named here, by UniProt entry; tags and fusion partners are left off. Residues count along the entry.
# UniProt P25025: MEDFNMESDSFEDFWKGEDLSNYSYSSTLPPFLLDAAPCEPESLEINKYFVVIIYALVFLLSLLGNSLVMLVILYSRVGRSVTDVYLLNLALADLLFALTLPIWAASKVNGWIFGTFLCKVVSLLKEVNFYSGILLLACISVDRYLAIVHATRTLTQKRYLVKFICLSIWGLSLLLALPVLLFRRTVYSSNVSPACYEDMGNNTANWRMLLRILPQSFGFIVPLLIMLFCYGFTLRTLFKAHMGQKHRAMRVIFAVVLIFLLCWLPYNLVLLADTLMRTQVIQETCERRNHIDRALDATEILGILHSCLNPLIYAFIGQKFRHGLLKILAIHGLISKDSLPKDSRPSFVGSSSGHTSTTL
# UniProt Q00610: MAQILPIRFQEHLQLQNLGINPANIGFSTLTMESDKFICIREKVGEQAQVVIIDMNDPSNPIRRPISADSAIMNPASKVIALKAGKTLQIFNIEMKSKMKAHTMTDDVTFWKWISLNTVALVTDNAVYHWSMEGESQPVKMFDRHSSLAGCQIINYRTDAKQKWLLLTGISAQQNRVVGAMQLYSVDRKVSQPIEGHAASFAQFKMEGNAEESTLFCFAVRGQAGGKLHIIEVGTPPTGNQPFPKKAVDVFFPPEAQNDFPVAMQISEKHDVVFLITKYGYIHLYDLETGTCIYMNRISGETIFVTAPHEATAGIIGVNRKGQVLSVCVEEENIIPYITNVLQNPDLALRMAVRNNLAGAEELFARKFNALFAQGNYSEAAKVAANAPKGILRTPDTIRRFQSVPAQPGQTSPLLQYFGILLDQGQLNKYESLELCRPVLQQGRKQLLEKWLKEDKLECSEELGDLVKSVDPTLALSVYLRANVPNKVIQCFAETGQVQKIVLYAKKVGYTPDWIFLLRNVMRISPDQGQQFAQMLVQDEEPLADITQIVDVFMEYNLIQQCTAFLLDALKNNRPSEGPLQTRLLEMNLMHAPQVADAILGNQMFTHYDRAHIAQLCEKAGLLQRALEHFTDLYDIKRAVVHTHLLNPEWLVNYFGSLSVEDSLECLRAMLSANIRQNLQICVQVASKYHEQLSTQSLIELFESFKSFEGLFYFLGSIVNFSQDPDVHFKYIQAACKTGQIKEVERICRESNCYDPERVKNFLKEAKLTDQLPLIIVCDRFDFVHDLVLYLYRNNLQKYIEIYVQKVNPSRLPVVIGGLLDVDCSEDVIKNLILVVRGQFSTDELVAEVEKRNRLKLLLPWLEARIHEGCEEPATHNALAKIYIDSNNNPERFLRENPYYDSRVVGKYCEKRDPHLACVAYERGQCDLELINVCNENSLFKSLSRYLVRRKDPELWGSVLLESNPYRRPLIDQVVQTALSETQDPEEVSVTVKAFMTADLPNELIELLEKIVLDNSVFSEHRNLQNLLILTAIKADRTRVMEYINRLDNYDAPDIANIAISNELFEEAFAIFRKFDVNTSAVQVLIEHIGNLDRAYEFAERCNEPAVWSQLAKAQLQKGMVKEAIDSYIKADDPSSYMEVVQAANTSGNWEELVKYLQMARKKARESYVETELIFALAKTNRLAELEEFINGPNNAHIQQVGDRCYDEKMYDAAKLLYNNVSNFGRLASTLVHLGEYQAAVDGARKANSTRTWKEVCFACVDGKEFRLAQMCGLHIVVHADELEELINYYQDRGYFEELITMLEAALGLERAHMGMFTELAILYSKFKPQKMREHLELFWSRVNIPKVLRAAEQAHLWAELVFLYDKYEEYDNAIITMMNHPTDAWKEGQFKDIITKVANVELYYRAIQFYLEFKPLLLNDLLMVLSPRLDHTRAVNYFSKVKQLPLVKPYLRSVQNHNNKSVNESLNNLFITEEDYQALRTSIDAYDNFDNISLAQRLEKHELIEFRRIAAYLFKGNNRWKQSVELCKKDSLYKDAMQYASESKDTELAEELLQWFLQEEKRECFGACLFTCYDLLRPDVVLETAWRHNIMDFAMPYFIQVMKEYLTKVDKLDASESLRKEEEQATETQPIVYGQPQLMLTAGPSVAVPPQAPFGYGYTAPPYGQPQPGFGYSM
# UniProt Q9Y490: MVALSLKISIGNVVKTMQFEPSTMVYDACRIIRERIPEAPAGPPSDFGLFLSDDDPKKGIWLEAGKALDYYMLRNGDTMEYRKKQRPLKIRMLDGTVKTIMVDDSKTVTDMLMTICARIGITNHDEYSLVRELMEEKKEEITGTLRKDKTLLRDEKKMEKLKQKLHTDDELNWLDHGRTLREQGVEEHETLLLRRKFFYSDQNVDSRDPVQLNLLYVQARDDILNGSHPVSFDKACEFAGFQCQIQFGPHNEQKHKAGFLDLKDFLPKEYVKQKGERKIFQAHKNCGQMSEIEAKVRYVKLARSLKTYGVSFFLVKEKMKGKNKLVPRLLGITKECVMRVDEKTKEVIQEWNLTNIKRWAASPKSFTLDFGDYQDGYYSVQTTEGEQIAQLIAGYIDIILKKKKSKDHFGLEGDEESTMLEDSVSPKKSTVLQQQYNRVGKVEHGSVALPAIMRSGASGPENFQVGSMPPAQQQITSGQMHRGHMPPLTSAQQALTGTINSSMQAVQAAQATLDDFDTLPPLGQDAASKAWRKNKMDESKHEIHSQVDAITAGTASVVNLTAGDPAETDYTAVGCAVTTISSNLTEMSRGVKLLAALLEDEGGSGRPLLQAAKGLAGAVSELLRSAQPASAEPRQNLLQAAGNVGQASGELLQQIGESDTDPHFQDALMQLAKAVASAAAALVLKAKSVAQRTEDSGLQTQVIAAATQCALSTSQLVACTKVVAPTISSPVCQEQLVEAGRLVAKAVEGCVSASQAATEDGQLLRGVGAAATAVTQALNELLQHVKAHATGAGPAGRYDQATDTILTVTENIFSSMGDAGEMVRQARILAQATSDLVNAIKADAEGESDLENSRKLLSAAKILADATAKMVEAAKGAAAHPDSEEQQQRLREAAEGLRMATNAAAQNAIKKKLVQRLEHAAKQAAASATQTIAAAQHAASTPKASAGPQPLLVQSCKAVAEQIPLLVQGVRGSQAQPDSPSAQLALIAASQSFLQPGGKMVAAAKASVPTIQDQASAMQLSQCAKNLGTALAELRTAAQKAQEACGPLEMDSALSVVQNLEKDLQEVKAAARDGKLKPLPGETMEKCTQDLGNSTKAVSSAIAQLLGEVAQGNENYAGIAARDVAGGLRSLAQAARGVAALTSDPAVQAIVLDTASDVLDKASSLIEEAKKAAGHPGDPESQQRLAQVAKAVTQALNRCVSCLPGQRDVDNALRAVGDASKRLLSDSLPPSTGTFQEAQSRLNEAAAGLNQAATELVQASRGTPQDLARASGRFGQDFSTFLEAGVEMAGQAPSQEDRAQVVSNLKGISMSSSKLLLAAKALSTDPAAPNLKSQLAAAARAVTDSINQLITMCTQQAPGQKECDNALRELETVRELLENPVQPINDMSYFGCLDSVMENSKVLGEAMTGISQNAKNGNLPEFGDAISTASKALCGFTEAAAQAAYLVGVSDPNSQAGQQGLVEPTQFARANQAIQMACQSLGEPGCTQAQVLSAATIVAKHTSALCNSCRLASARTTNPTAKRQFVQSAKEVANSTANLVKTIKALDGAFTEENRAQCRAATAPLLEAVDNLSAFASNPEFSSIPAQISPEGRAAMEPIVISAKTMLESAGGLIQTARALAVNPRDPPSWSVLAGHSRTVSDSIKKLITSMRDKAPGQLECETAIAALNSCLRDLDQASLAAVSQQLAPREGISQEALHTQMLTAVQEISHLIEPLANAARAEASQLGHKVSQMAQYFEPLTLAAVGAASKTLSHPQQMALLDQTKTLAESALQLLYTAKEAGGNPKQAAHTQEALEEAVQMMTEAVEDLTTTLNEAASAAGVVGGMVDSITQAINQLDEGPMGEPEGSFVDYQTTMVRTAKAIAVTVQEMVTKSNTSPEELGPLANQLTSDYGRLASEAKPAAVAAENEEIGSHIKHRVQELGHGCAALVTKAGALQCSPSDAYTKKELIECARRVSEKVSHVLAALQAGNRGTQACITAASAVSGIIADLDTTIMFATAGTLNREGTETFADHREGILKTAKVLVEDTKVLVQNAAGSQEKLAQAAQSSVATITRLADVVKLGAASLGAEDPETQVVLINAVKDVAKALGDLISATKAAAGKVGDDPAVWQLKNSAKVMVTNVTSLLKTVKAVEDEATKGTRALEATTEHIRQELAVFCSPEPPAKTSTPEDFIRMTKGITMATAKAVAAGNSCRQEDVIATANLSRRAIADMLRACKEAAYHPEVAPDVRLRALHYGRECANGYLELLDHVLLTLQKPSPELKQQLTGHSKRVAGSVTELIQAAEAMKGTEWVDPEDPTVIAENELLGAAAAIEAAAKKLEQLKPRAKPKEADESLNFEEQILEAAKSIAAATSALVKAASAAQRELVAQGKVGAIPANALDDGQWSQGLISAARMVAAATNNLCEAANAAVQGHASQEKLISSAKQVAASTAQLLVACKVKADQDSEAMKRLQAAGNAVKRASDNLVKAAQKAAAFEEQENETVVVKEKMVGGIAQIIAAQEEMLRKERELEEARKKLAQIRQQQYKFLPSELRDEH
# UniProt P06396, residues 28-782: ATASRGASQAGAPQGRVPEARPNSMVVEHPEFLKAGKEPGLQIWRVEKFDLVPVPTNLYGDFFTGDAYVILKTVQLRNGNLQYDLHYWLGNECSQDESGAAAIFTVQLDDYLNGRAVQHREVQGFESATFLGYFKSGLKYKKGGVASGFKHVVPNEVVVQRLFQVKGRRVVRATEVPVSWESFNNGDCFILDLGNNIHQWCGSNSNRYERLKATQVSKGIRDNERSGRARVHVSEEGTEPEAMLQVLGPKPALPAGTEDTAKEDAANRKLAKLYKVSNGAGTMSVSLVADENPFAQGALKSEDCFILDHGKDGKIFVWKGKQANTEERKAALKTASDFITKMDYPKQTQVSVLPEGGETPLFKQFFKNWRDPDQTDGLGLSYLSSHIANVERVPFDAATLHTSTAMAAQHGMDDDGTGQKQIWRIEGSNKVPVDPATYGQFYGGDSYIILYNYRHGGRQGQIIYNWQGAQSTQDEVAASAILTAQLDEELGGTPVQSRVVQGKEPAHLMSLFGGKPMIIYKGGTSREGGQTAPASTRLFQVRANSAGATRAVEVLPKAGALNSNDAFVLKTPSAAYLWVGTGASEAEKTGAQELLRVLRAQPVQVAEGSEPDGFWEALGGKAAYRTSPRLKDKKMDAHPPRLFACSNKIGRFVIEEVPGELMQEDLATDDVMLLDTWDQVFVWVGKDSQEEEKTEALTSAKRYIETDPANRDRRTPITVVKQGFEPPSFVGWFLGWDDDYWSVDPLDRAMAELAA
# UniProt Q9H0B6: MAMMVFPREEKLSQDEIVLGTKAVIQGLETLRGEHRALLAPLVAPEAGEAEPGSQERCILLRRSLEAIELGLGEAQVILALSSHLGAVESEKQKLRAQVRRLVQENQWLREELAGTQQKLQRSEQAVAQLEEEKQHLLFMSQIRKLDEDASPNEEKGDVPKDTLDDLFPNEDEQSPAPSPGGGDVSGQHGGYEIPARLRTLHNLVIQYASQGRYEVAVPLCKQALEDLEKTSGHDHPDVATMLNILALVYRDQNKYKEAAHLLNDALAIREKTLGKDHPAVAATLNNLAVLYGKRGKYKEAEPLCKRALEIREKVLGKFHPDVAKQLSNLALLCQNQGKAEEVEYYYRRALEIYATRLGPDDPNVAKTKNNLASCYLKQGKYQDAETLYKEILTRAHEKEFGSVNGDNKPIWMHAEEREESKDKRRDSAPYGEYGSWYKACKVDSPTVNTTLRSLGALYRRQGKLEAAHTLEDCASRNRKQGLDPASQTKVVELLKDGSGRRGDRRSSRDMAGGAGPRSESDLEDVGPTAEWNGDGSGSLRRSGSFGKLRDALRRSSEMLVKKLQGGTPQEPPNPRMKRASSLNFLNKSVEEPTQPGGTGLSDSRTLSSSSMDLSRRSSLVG
# UniProt P25787: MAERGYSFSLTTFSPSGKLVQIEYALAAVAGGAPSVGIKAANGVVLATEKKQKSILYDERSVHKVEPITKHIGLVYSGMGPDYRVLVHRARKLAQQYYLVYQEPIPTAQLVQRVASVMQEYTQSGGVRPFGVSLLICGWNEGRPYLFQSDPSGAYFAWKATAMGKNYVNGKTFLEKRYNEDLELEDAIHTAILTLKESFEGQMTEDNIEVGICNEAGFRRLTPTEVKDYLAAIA
# UniProt P63104: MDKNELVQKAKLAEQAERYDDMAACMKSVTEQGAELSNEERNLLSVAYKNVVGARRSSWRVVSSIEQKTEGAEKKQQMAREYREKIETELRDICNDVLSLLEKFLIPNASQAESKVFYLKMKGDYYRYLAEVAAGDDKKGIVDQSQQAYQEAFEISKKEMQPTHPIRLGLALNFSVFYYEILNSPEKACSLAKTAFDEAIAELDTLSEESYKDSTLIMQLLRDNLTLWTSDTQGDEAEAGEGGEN
# These are yes or no findings as the source states them, for the method shown. Binding seen in cells or lysates may run through a third protein. A yes stands for co-enrichment or nearness to the bait. Other partners may have been found.
# Target: CXCR2 stably over-expressed in differentiated HL-60 cells (UniProt P25025)
# Assay: affinity purification with mass spectrometry; anti-CXCR2 rabbit antibody coupled to Sepharose; lysates of differentiated HL-60 cells stably expressing CXCR2, vehicle or 100 ng/ml CXCL8 for 1 min; lysis buffer 50 mM Tris-HCl pH 7.5, 0.05% Triton X-100, 300 mM NaCl; normal rabbit IgG beads as mock, its identifications subtracted; LC/MS/MS
row,Substance,binding
1,Clathrin heavy chain 1 (from UniProt Q00610 1-1675),binds
2,Dynein heavy chain 5 (from UniProt Q8TE73 1-4624),binds
3,"IQ motif containing GTPase activating protein 1 (IQGAP1), endogenous in differentiated HL-60 cells (from UniProt P46940 1-1657)",binds
4,Talin 1 (from UniProt Q9Y490 1-2541),binds
5,Valosin-containing protein (VCP) (from UniProt P55072 1-806),binds
6,Vasodilator-stimulated phosphoprotein (VASP) (from UniProt P50552 1-380),binds

# Other lines, results leading:
row,binding,Substance
1,binds,Gelsolin (from UniProt P06396 28-782)
2,binds,Kinesin light chain-2 (from UniProt Q9H0B6 1-622)
3,binds,PSMA2 (proteosome subunit) (from UniProt P25787 1-234)
4,binds,YWHAZ (14-3-3 zeta) (from UniProt P63104 1-245)
